PubChem BioAssay AID1224831 – NIAID, 2016
Test: 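Genes that support or restrain LPS-induced TNF-alpha reporter activity in macrophage-like cells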 (follow-up of hits). System: human THP-1 B5 monocytic leukaemia cells carrying a TNF promoter luciferase reporter, made macrophage-like with PMA. Knock-down reagent: single siRNA against human genes, 50 nM. Duration: about 68 h of knock-down, then 4 h LPS. Challenge: LPS (Salmonella minnesota, TLR-grade) at 10 ng/ml for 4 h; PMA 5 ng/ml present during knock-down. Measured: 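Firefly to renilla luciferase ratio of a TNF promoter reporter after 4 h LPS, scaled to plate median, turned into robust z-score, averaged over replicates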. Reading the numbers: TNF reporter z-score: higher = stronger LPS-induced TNF reporter signal; z-score, median over gene's siRNAs: higher = stronger TNF reporter signal across the gene's siRNAs. Call rule: 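Active when the replicate mean z-score is about -1 or lower, or about 1.5 or higher; lowered and raised TNF reporter signal both count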. Meaning of the calls: active = changed TNF reporter (either direction); inactive = little change.
The deposit covers about 3,500 reagents; this is a part drawn at random. 731 of them (21%) count as active. 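Active means either lowered or raised reporter signal; the gene-median score did not drive the per-siRNA calls.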

The first 8 records as a preview:
no.	target	PubChem SID	TNF reporter z-score, replicate mean	z-score, median over gene's siRNAs	activity call
1	GPR156 (GeneID 165829)	SID315487950	-0.63	-0.195	inactive
2	GPR156 (GeneID 165829)	SID315487951	-0.32	-0.195	inactive
3	GPR156 (GeneID 165829)	SID315487952	-0.07	-0.195	inactive
4	GPR156 (GeneID 165829)	SID315487953	-0.87	-0.195	inactive
5	GPR156 (GeneID 165829)	SID315487954	0.04	-0.195	inactive
6	GPR156 (GeneID 165829)	SID315487955	0.15	-0.195	inactive
7	KRTAP3-1 (GeneID 83896)	SID315487143	0.3	0.26	inactive
8	KRTAP3-1 (GeneID 83896)	SID315487144	-0.12	0.26	inactive

Results, from the first entry:
no.	target	PubChem SID	TNF reporter z-score, replicate mean	z-score, median over gene's siRNAs	activity call
1	GPR156 (GeneID 165829)	SID315487950	-0.63	-0.195	inactive
2	GPR156 (GeneID 165829)	SID315487951	-0.32	-0.195	inactive
3	GPR156 (GeneID 165829)	SID315487952	-0.07	-0.195	inactive
4	GPR156 (GeneID 165829)	SID315487953	-0.87	-0.195	inactive
5	GPR156 (GeneID 165829)	SID315487954	0.04	-0.195	inactive
6	GPR156 (GeneID 165829)	SID315487955	0.15	-0.195	inactive
7	KRTAP3-1 (GeneID 83896)	SID315487143	0.3	0.26	inactive
8	KRTAP3-1 (GeneID 83896)	SID315487144	-0.12	0.26	inactive
9	KRTAP3-1 (GeneID 83896)	SID315487145	0.45	0.26	inactive
10	KRTAP3-1 (GeneID 83896)	SID315487146	-0.39	0.26	inactive
11	KRTAP3-1 (GeneID 83896)	SID315487147	1.22	0.26	inactive
12	KRTAP3-1 (GeneID 83896)	SID315487148	0.22	0.26	inactive
13	LKAAEAR1 (GeneID 198437)	SID315488016	0.37	0.06	inactive
14	LKAAEAR1 (GeneID 198437)	SID315488017	-0.23	0.06	inactive
15	LKAAEAR1 (GeneID 198437)	SID315488018	1.13	0.06	inactive
16	LKAAEAR1 (GeneID 198437)	SID315488019	-0.75	0.06	inactive
17	LKAAEAR1 (GeneID 198437)	SID315488020	-0.33	0.06	inactive
18	LKAAEAR1 (GeneID 198437)	SID315488021	0.35	0.06	inactive
19	DUS3L (GeneID 56931)	SID315486015	1.12	0.375	inactive
20	DUS3L (GeneID 56931)	SID315486016	0.32	0.375	inactive
21	DUS3L (GeneID 56931)	SID315486017	-0.26	0.375	inactive
22	DUS3L (GeneID 56931)	SID315486018	2.09	0.375	active
23	DUS3L (GeneID 56931)	SID315486019	0.43	0.375	inactive
24	DUS3L (GeneID 56931)	SID315486020	0.1	0.375	inactive
25	PHF5A (GeneID 84844)	SID315487197	-0.5	-0.415	inactive
26	PHF5A (GeneID 84844)	SID315487198	-0.39	-0.415	inactive
27	PHF5A (GeneID 84844)	SID315487199	0.58	-0.415	inactive
28	PHF5A (GeneID 84844)	SID315487200	-0.44	-0.415	inactive
29	PHF5A (GeneID 84844)	SID315487201	-0.68	-0.415	inactive
30	PHF5A (GeneID 84844)	SID315487202	-0.09	-0.415	inactive
31	STMN2 (GeneID 11075)	SID315483570	0.46	0.185	inactive
32	STMN2 (GeneID 11075)	SID315483571	-0.09	0.185	inactive
33	STMN2 (GeneID 11075)	SID315483572	0.46	0.185	inactive
34	STMN2 (GeneID 11075)	SID315483573	-1.81	0.185	active
35	STMN2 (GeneID 11075)	SID315483574	-1.13	0.185	active
36	STMN2 (GeneID 11075)	SID315483575	0.66	0.185	inactive
37	RCN3 (GeneID 57333)	SID315486057	2.09	0.34	active
38	RCN3 (GeneID 57333)	SID315486058	0.21	0.34	inactive
39	RCN3 (GeneID 57333)	SID315486059	0.18	0.34	inactive
40	RCN3 (GeneID 57333)	SID315486060	0.13	0.34	inactive
41	RCN3 (GeneID 57333)	SID315486061	0.47	0.34	inactive
42	RCN3 (GeneID 57333)	SID315486062	0.84	0.34	inactive
43	GUCY2D (GeneID 3000)	SID315482406	0.59	0.575	inactive
44	GUCY2D (GeneID 3000)	SID315482407	2.33	0.575	active
45	GUCY2D (GeneID 3000)	SID315482408	-0.08	0.575	inactive
46	GUCY2D (GeneID 3000)	SID315482409	0.56	0.575	inactive
47	GUCY2D (GeneID 3000)	SID315482410	6.62	0.575	active
48	GUCY2D (GeneID 3000)	SID315482411	-0.09	0.575	inactive
49	ARL8B (GeneID 55207)	SID315485811	-1.6	-0.13	active
50	ARL8B (GeneID 55207)	SID315485812	-1.4	-0.13	active
51	ARL8B (GeneID 55207)	SID315485813	0.39	-0.13	inactive
52	ARL8B (GeneID 55207)	SID315485814	-0.18	-0.13	inactive
53	ARL8B (GeneID 55207)	SID315485815	-0.08	-0.13	inactive
54	ARL8B (GeneID 55207)	SID315485816	0.03	-0.13	inactive
55	PLAGL2 (GeneID 5326)	SID315482706	0.84	0.395	inactive
56	PLAGL2 (GeneID 5326)	SID315482707	-1.19	0.395	active
57	PLAGL2 (GeneID 5326)	SID315482708	-0.98	0.395	inactive
58	PLAGL2 (GeneID 5326)	SID315482709	-0.05	0.395	inactive
59	PLAGL2 (GeneID 5326)	SID315482710	1.25	0.395	inactive
60	PLAGL2 (GeneID 5326)	SID315482711	1.34	0.395	inactive
61	PLOD3 (GeneID 8985)	SID315483168	-0.01	0.08	inactive
62	PLOD3 (GeneID 8985)	SID315483169	-0.24	0.08	inactive
63	PLOD3 (GeneID 8985)	SID315483170	0.17	0.08	inactive
64	PLOD3 (GeneID 8985)	SID315483171	-0.75	0.08	inactive
65	PLOD3 (GeneID 8985)	SID315483172	1.09	0.08	inactive
66	PLOD3 (GeneID 8985)	SID315483173	0.29	0.08	inactive
67	TLK2 (GeneID 11011)	SID315483558	0.23	0.73	inactive
68	TLK2 (GeneID 11011)	SID315483559	0.51	0.73	inactive
69	TLK2 (GeneID 11011)	SID315483560	2.44	0.73	active
70	TLK2 (GeneID 11011)	SID315483561	0.95	0.73	inactive
71	TLK2 (GeneID 11011)	SID315483562	-1.49	0.73	active
72	TLK2 (GeneID 11011)	SID315483563	1.7	0.73	active
73	PSMD8 (GeneID 5714)	SID315482820	-0.9	-1.05	inactive
74	PSMD8 (GeneID 5714)	SID315482821	-1.39	-1.05	active
75	PSMD8 (GeneID 5714)	SID315482822	-1.89	-1.05	active
76	PSMD8 (GeneID 5714)	SID315482823	0.37	-1.05	inactive
77	PSMD8 (GeneID 5714)	SID315482824	-1.21	-1.05	active
78	PSMD8 (GeneID 5714)	SID315482825	-0.83	-1.05	inactive
79	YARS1 (GeneID 8565)	SID315483096	0.97	-0.405	inactive
80	YARS1 (GeneID 8565)	SID315483097	-0.05	-0.405	inactive
81	YARS1 (GeneID 8565)	SID315483098	0.03	-0.405	inactive
82	YARS1 (GeneID 8565)	SID315483099	-0.76	-0.405	inactive
83	YARS1 (GeneID 8565)	SID315483100	-1.47	-0.405	active
84	YARS1 (GeneID 8565)	SID315483101	-0.96	-0.405	inactive
85	RNF214 (GeneID 257160)	SID315488568	-0.1	0.045	inactive
86	RNF214 (GeneID 257160)	SID315488569	-1.33	0.045	active
87	RNF214 (GeneID 257160)	SID315488570	0.68	0.045	inactive
88	RNF214 (GeneID 257160)	SID315488571	1.72	0.045	active
89	RNF214 (GeneID 257160)	SID315488572	0.19	0.045	inactive
90	RNF214 (GeneID 257160)	SID315488573	-0.24	0.045	inactive
91	PRR14 (GeneID 78994)	SID315486903	-0.2	0.19	inactive
92	PRR14 (GeneID 78994)	SID315486904	-0.39	0.19	inactive
93	PRR14 (GeneID 78994)	SID315486905	-0.23	0.19	inactive
94	PRR14 (GeneID 78994)	SID315486906	0.58	0.19	inactive
95	PRR14 (GeneID 78994)	SID315486907	0.92	0.19	inactive
96	PRR14 (GeneID 78994)	SID315486908	0.79	0.19	inactive
97	GIMAP8 (GeneID 155038)	SID315487902	-0.24	0.66	inactive
98	GIMAP8 (GeneID 155038)	SID315487903	0.4	0.66	inactive
99	GIMAP8 (GeneID 155038)	SID315487904	3.27	0.66	active
100	GIMAP8 (GeneID 155038)	SID315487905	0.92	0.66	inactive
101	GIMAP8 (GeneID 155038)	SID315487906	0.36	0.66	inactive
102	GIMAP8 (GeneID 155038)	SID315487907	2.73	0.66	active
103	ARRDC2 (GeneID 27106)	SID315485337	-0.05	-1.07	inactive
104	ARRDC2 (GeneID 27106)	SID315485338	-2.05	-1.07	active
105	ARRDC2 (GeneID 27106)	SID315485339	-0.69	-1.07	inactive
106	ARRDC2 (GeneID 27106)	SID315485340	-1.72	-1.07	active
107	ARRDC2 (GeneID 27106)	SID315485341	-0.99	-1.07	inactive
108	ARRDC2 (GeneID 27106)	SID315485342	-1.16	-1.07	active
